Source: PubChem BioAssay AID1259254 (NCATS, 2017)
Aim: 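Gene knock-downs that lead to re-replication, shown by excess G2 DNA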 (primary screen). Cells: human HCT116 colorectal cancer cells. Knock-down reagent: single siRNA against human genes. Duration: 3 days. Detection: 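Imaged Hoechst DNA stain sorts each cell into a cycle phase by DNA amount; per plate, G2 fraction set to 0% for non-targeting and 100% for GMNN siRNA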. Scale: G2 robust z-score and G2 cells, % of GMNN control: higher = more G2 cells, more excess DNA replication; raw share of cells in G2: higher = larger share of cells with G2 DNA content. Active means: 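Active siRNAs have a G2 robust z of 5 or more median absolute deviations over the median, which in these data means about 38% or higher of GMNN control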.
The whole screen tested about 59,000 reagents; below is a part drawn at random. Over the whole deposit, about 1,550 (2.6%) are marked active. 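G2 share is only a proxy for re-replication; each gene was hit by three separate siRNAs, and active genes were retested.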 The raw values are shown without normalisation. Reagents against one gene are numbered here. Not given: the amount of reagent.

The opening 3 records as a preview:
| gene knocked down | reagent | G2 robust z-score | G2 cells, % of GMNN control | raw share of cells in G2 (%) | outcome |
| --- | --- | --- | --- | --- | --- |
| CLIP4 | 1 | -0.0688 | 2.48 | 5.48 | inactive |
| CLIP4 | 2 | -0.102 | 2.25 | 5.29 | inactive |
| CLIP4 | 3 | -0.255 | 1.17 | 2.7 | inactive |

Results, repeating the preview:
| gene knocked down | reagent | G2 robust z-score | G2 cells, % of GMNN control | raw share of cells in G2 (%) | outcome |
| --- | --- | --- | --- | --- | --- |
| CLIP4 | 1 | -0.0688 | 2.48 | 5.48 | inactive |
| CLIP4 | 2 | -0.102 | 2.25 | 5.29 | inactive |
| CLIP4 | 3 | -0.255 | 1.17 | 2.7 | inactive |
| ZFYVE28 | 1 | 0.339 | 5.35 | 4.68 | inactive |
| ZFYVE28 | 2 | -1.02 | -4.21 | 4 | inactive |
| ZFYVE28 | 3 | 1.13 | 10.9 | 7.07 | inactive |
| SERPINA5 | 1 | 0.954 | 9.68 | 8.86 | inactive |
| SERPINA5 | 2 | 7.06 | 52.6 | 26.1 | active |
| SERPINA5 | 3 | -0.787 | -2.57 | 2.32 | inactive |
| SEC31A | 1 | -1.5 | -7.56 | 2.02 | inactive |
| SEC31A | 2 | -0.676 | -1.79 | 3.4 | inactive |
| SEC31A | 3 | -0.314 | 0.757 | 3.46 | inactive |
| KLHL34 | 1 | -0.167 | 1.79 | 4.29 | inactive |
| KLHL34 | 2 | 2.65 | 21.6 | 11.4 | inactive |
| KLHL34 | 3 | -0.799 | -2.65 | 2.46 | inactive |
| ARPC5 | 1 | -0.44 | -0.131 | 3.15 | inactive |
| ARPC5 | 2 | -1.4 | -6.9 | 2.6 | inactive |
| ARPC5 | 3 | -0.353 | 0.486 | 4.95 | inactive |
| KIAA2013 | 1 | 1.37 | 12.6 | 9.43 | inactive |
| KIAA2013 | 2 | 0.114 | 3.77 | 4.18 | inactive |
| KIAA2013 | 3 | 1.73 | 15.1 | 7.72 | inactive |
| DUOX2 | 1 | 0.707 | 7.94 | 9.56 | inactive |
| DUOX2 | 2 | 3.63 | 28.5 | 14.8 | inactive |
| DUOX2 | 3 | -0.103 | 2.24 | 4.66 | inactive |
| RARA | 1 | -0.143 | 1.96 | 6.34 | inactive |
| RARA | 2 | -1.04 | -4.36 | 3.05 | inactive |
| RARA | 3 | -0.538 | -0.816 | 3.69 | inactive |
| DCTN1 | 1 | 2.2 | 18.5 | 11.6 | inactive |
| DCTN1 | 2 | -0.184 | 1.67 | 5.6 | inactive |
| DCTN1 | 3 | 0.236 | 4.63 | 5.69 | inactive |
